Results as given in PMC6199744, “Development of Chemical Proteomics for the Folateome and Analysis of the Kinetoplastid Folateome” (ACS Infectious Diseases, 2018).
Values joined by “and” are separate entries in the source; they are usually repeats but may differ in a detail not shown here. Equal values may be shown once. Read-outs that look alike come from different tables or passages of the source. The source gives many values for each of these; only a part stands here.

Test system: L. major lysate proteins
Assay: Multitargeted bead mixture chemoproteomics, single concentration competition, proteome-wide
Assay type: binding

## Nc1nc2c(c(=O)[nH]1)N(C=O)C(CNc1ccc(C(=O)N[C@@H](CCC(=O)O)C(=O)O)cc1)CN2 (stereo partly drawn) [LEU, leucovorin]
  fold change: 1.02 and 1.03 and 1.07 and 0.86
Protein LINJ.01.0790 […] 4A, PUTATIVE, vehicle control = 1
  fold change: 1.15
Protein LINJ.03.0940 HYPOTHETICAL PROTEIN, CONSERVED, vehicle control = 1
  fold change: 0.82
Protein LINJ.05.0070 DYNEIN LIGHT CHAIN, PUTATIVE, vehicle control = 1
  fold change: 1.07
Protein LINJ.07.0210 CYTOCHROME C1, HEME PROTEIN, MITOCHONDRIAL PRECURSOR, PUTATIVE, vehicle control = 1
  fold change: 0.94
Protein LINJ.09.0030 HYPOTHETICAL PROTEIN, CONSERVED, vehicle control = 1
  fold change: 0.99
Protein LINJ.09.1130 EUKARYOTIC TRANSLATION INITIATION FACTOR 2 SUBUNIT, PUTATIVE, vehicle control = 1
  fold change: 0.88
Protein LINJ.13.1460 ALPHA TUBULIN, vehicle control = 1
  fold change: 0.95
Protein LINJ.15.0090 HEAT SHOCK PROTEIN HSLVU, ATPASE SUBUNIT HSLU, PUTATIVE, vehicle control = 1
  fold change: 1
Protein LINJ.19.0140 PROTEIN KINASE, PUTATIVE,MITOGEN-ACTIVATED PROTEIN KINASE, PUTATIVE, vehicle control = 1
  fold change: 0.82
Protein LINJ.19.0300 RNA BINDING PROTEIN, vehicle control = 1
  fold change: 1.08
Protein LINJ.21.0900 HY[…], CONSERVED, vehicle control = 1
  fold change: 1.01
Protein LINJ.21.1790 40S RIBOSOMAL PROTEIN S11, PUTATIVE, vehicle control = 1
  fold change: 1.08
Protein LINJ.25.1460 GTP-BINDING PROTEIN, PUTATIVE, vehicle control = 1
  fold change: 1.05
Protein LINJ.25.2170 HYPOTHETICAL PROTEIN, CONSERVED, vehicle control = 1
  fold change: 0.81
Protein LINJ.26.0840 40S RIBOSOMAL PROTEIN S16, PUTATIVE, vehicle control = 1
  fold change: 1.04
Protein LINJ.26.1080 HYPOTHETICAL PROTEIN, CONSERVED, vehicle control = 1
  fold change: 0.94
Protein LINJ.27.1150 T-COMPLEX PROTEIN 1, BETA SUBUNIT, PUTATIVE, vehicle control = 1
  fold change: 1.03
Protein LINJ.28.1310 GLUCOSE-REGULATED PROTEIN 78, PUTATIVE, vehicle control = 1
  fold change: 1.08
Protein LINJ.29.0110 HYPOTHETICAL PROTEIN, CONSERVED, vehicle control = 1
  fold change: 0.9
Protein LINJ.29.0770 P[…] SIGNAL TYPE 2 RECEPTOR, PUTATIVE, vehicle control = 1
  fold change: 1.05
Protein LINJ.32.2960 […]-ATP-ASE SUBUNIT, PUTATIVE, vehicle control = 1
  fold change: 0.78
Protein LINJ.32.3230 PROTEIN PHOSPHATASE 2A CATALYTIC SUBUNIT, PUTATIVE, vehicle control = 1
  fold change: 1.05
Protein LINJ.33.0350 HEAT SHOCK PROTEIN 83-1, vehicle control = 1
  fold change: 1.06
Protein LINJ.36.2140 CHAPERONIN HSP60, MIT[…], vehicle control = 1
  fold change: 1.12
Protein LINJ.36.7350 CYTOCHROME C OXIDASE SUBUNIT I, vehicle control = 1
  fold change: 0.99
Protein LMJF.02.0450 VOLTAGE-DEPENDENT ANION-SELECTIVE CHANNEL, PUTATIVE, vehicle control = 1
  fold change: 1.04
Protein LMJF.02.0460 HY[…], CONSERVED, vehicle control = 1
  fold change: 0.97
Protein LMJF.03.0630 HY[…], CONSERVED, vehicle control = 1
  fold change: 1.07
Protein LMJF.05.0030 RAS-LIKE SMALL GTPASES, PUTATIVE, vehicle control = 1
  fold change: 0.96
Protein LMJF.06.0140 PROTEASOME BETA 6 SUBUNIT, PUTATIVE, vehicle control = 1
  fold change: 0.96
Protein LMJF.06.0880 ACYL-COENZYME A DEHYDROGENASE, PUTATIVE, vehicle control = 1
  fold change: 0.9
Protein LMJF.07.0270 […] DEACETYLASE-LIKE PROTEIN, vehicle control = 1
  fold change: 0.97
Protein LMJF.07.0340 ATP-DEPENDENT DEAD/H RNA HELICASE, PUTATIVE, vehicle control = 1
  fold change: 1.05
Protein LMJF.07.0640 HY[…], CONSERVED, vehicle control = 1
  fold change: 1.08
Protein LMJF.07.1050 CATION-TRANSPORTING ATPASE, PUTATIVE, vehicle control = 1
  fold change: 0.9
Protein LMJF.08.1110 STRESS-INDUCED PROTEIN STI1, vehicle control = 1
  fold change: 1.07
Protein LMJF.09.0970 […]-1 GAMMA, vehicle control = 1
  fold change: 1.11
Protein LMJF.10.1010 NUCLEOSIDE PHOSPHORYLASE-LIKE PROTEIN, vehicle control = 1
  fold change: 1.13
Protein LMJF.10.1240 HYPOTHETICAL PROTEIN, CONSERVED
  fold change vs vehicle control: 0.93
Protein LMJF.11.0220 PTERIN-4-ALPHA-CARBINOLAMINE DEHYDRATASE, PUTATIVE, vehicle control = 1
  fold change: 1.07
Protein LMJF.11.0240 […] 7 SUBUNIT, PUTATIVE, vehicle control = 1
  fold change: 0.98
Protein LMJF.11.0350 14-3-3 PROTEIN, PUTATIVE, vehicle control = 1
  fold change: 1.05
Protein LMJF.11.0550 NUCLEOBASE TRANSPORTER, vehicle control = 1
  fold change: 1.06
Protein LMJF.11.1000 PYRUVATE PHOSPHATE DIKINASE, PUTATIVE, vehicle control = 1
  fold change: 1.19
Protein LMJF.12.0280 ORNITHINE DECARBOXYLASE, PUTATIVE, vehicle control = 1
  fold change: 0.85
Protein LMJF.12.0670 […] OXIDASE SUBUNIT IV, vehicle control = 1
  fold change: 1.07
Protein LMJF.12.1130 NADH:FLAVIN OXIDOREDUCTASE/NADH OXIDASE, PUTATIVE, vehicle control = 1
  fold change: 1.03
Protein LMJF.12.1270 ARGININE N-METHYLTRANSFERASE-LIKE PROTEIN, vehicle control = 1
  fold change: 0.92
Protein LMJF.13.0450 HYPOTHETICAL PROTEIN, CONSERVED
  fold change vs vehicle control: 0.93
Protein LMJF.13.0570 40S RIBOSOMAL PROTEIN S12, PUTATIVE, vehicle control = 1
  fold change: 1.15
Protein LMJF.13.0870 MIT[…] ALPHA SUBUNIT, PUTATIVE, vehicle control = 1
  fold change: 0.96
Protein LMJF.13.1190 ADENYLOSUCCINATE SYNTHETASE, PUTATIVE, vehicle control = 1
  fold change: 0.95
Protein LMJF.13.1660 CHAPERONIN TCP20, PUTATIVE, vehicle control = 1
  fold change: 0.99
Protein LMJF.14.0190 HY[…], CONSERVED, vehicle control = 1
  fold change: 1.43
Protein LMJF.14.0460 CYSTATHIONINE BETA-LYASE-LIKE PROTEIN, vehicle control = 1
  fold change: 0.93
Protein LMJF.14.0650 FATTY ACID ELONGASE, PUTATIVE, vehicle control = 1
  fold change: 0.96
Protein LMJF.15.0230 LYSYL-TRNA SYNTHETASE, PUTATIVE, vehicle control = 1
  fold change: 1.04
Protein LMJF.15.1160 TR[…], vehicle control = 1
  fold change: 1.06
Protein LMJF.15.1440 GLUTAMINYL-TRNA SYNTHETASE, PUTATIVE, vehicle control = 1
  fold change: 1.03
Protein LMJF.16.0960 HY[…], CONSERVED (methyltransferase domain containing protein, putative), vehicle control = 1
  fold change: 1.11
Protein LMJF.16.1427 PARAFLAGELLAR ROD PROTEIN 2C
  fold change vs vehicle control: 0.94
Protein LMJF.17.0980 HYPOTHETICAL PROTEIN, CONSERVED (Mak10 subunit, NatC N(alpha)-terminal acetyltransferase, putative), vehicle control = 1
  fold change: 0.99
Protein LMJF.18.0450 SERINE CARBOXYPEPTIDASE (CBP1), PUTATIVE, vehicle control = 1
  fold change: 0.93
Protein LMJF.18.0510 ACONITASE, PUTATIVE, vehicle control = 1
  fold change: 1.09
Protein LMJF.18.0740 ELONGATION FACTOR TU, PUTATIVE, vehicle control = 1
  fold change: 0.98
